In paper PMC3407361:
No constants are given. Whether binding was seen depends on the method and setting. Some entries that bind do so weakly or less than the wild type.

Amino acid sequences for entries named in this document (tags omitted). A change or cut given only in a name is not applied to a line headed by its entry. Residues count along the entry.
UniProt P08603, residues 19-1231: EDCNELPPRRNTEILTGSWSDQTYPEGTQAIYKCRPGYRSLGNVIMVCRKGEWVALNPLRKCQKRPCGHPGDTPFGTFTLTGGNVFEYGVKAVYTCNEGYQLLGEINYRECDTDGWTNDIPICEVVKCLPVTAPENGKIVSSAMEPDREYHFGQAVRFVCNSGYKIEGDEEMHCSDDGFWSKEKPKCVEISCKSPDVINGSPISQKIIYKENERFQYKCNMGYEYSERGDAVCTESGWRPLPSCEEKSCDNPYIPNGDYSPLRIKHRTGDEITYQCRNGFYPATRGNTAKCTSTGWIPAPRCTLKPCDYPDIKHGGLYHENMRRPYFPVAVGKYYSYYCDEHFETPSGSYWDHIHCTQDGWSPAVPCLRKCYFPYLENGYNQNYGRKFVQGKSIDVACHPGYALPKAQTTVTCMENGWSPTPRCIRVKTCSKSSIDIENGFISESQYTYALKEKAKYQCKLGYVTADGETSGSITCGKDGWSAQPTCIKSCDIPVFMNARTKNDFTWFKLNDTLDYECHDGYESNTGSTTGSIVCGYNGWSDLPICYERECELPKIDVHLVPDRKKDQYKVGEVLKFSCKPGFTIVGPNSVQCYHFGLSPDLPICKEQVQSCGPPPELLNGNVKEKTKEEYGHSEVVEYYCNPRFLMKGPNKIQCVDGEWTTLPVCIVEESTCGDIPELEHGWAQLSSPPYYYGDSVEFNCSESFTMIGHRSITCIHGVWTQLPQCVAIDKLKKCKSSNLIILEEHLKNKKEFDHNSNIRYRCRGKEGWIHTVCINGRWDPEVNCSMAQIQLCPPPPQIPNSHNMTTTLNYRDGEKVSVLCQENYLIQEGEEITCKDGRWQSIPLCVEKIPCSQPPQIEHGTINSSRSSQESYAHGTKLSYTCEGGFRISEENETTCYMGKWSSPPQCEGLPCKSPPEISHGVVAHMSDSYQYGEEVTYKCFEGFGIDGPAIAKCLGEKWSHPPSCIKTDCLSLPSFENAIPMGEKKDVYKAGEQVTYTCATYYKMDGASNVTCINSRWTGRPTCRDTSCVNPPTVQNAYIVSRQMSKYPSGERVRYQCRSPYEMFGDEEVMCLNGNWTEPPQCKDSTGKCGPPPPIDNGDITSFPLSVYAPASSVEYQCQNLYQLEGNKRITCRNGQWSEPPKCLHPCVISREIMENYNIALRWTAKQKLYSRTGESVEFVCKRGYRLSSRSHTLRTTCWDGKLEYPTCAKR
UniProt P01024: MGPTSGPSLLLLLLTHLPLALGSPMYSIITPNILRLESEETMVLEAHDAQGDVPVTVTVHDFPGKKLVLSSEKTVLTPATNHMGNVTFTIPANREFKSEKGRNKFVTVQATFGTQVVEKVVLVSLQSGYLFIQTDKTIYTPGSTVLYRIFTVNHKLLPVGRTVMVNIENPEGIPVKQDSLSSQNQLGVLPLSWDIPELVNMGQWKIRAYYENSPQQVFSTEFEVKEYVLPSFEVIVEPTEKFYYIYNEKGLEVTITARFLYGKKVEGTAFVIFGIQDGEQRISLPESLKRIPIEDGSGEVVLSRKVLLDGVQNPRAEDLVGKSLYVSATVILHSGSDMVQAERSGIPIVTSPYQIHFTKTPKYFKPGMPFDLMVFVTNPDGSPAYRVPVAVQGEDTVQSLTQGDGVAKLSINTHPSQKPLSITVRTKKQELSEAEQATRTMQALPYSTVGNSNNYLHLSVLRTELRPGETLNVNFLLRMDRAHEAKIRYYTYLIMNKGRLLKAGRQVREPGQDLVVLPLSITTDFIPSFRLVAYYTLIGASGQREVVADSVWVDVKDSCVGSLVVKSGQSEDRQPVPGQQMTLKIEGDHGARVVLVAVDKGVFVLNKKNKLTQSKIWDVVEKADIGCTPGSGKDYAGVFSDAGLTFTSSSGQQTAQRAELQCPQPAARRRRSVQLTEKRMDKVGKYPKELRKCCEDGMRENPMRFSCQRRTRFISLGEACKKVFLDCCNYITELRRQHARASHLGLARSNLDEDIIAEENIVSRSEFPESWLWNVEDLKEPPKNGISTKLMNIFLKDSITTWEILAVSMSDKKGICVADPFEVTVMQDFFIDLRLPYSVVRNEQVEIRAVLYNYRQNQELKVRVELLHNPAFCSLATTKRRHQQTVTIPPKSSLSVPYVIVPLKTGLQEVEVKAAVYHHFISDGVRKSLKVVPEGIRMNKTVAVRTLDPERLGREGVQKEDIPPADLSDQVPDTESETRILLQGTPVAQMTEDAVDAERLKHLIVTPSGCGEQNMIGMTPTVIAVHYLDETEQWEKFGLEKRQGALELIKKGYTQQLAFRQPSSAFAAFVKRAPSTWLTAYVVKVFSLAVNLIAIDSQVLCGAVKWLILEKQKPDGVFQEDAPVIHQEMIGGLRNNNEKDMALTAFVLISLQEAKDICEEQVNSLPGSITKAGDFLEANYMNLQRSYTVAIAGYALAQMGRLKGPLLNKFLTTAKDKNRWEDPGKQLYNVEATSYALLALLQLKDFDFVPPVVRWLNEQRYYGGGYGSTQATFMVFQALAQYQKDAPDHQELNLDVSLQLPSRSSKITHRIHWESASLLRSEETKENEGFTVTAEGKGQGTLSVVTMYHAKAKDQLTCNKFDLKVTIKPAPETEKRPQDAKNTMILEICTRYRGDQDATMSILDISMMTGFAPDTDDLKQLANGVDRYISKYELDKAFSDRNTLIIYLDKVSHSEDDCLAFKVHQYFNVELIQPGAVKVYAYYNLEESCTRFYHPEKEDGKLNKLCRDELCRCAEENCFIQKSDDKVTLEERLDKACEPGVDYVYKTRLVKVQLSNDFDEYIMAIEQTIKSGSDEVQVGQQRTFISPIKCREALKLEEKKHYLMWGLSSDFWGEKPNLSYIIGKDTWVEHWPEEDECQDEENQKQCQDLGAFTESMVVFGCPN

Target: complement factor H (UniProt P08603)
Experiment: ELISA; wells coated with 1 ug/mL purified CFH; medium samples with 1,000, 500, 250 or 125 ng/mL wild-type or mutant C3b; detected with HRP-conjugated goat antibodies against C3; arbitrary units; only the target purified

Substance | binding
recombinant C3b carrying p.Arg161Trp (from UniProt P01024 23-667; P01024 749-1663) | binds
recombinant C3b carrying p.Lys65Gln (from UniProt P01024 23-667; P01024 749-1663) | binds
wild-type recombinant C3b (from UniProt P01024 23-667; P01024 749-1663) | binds
